By UniProt entry, the sequences of proteins in these tests, tags left out.
UniProt Q9BRP8: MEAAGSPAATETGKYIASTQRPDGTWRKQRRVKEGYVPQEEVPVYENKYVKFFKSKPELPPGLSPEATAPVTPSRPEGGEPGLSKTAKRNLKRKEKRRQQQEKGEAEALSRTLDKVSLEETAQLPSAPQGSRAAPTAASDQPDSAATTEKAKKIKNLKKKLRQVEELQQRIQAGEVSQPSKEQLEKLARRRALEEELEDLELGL

According to article PMC11217289:

Biological target: tetracycline-inducible PYM1-Flag (UniProt Q9BRP8)
Test: affinity purification with mass spectrometry; PYM1-Flag pull-out from cycloheximide-treated HEK 293/Flp-In/T-Rex cells; MS analysis (Data S1)

B1: endogenous PDCD4 (protein, UniProt Q53EL6 1-469)
chain: MDVENEQILNVNPADPDNLSDSLFSGDEENAGTEEIKNEINGNWISASSINEARINAKAKRRLRKNSSRDSGRGDSVSDSGSDALRSGLTVPTSPKGRLLDRRSRSGKGRGLPKKGGAGGKGVWGTPGQVYDVEEVDVKDPNYDDDQENCVYETVVLPLDERAFEKTLTPIIQEYFEHGDTNEVAEMLRDLNLGEMKSGVPVLAVSLALEGKASHREMTSKLLSDLCGTVMSTTDVEKSFDKLLKDLPELALDTPRAPQLVGQFIARAVGDGILCNTYIDSYKGTVDCVQARAALDKATVLLSMSKGGKRKDSVWGSGGGQQSVNHLVKEIDMLLKEYLLSGDISEAEHCLKELEVPHFHHELVYEAIIMVLESTGESTFKMILDLLKSLWKSSTITVDQMKRGYERIYNEIPDINLDVPHSYSVLERFVEECFQAGIISKQLRDLCPSRGRKRFVSEGDGGRLKPESY
Question: B1 was tested. Which binding did it give?
Answer: binds

These are yes or no findings as the source states them, for the method shown. Binding seen in cells or lysates may run through a third protein. Here binding means that the protein was enriched with, or labelled near, the bait; the list need not be complete.
